Measured values: PubChem BioAssay AID1508600 (Functional Genomics Laboratory (NCATS/FGL), 2020)
Hit rate of the full screen: of about 53,000 sequences, about 3,700 (7%) were called active.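 How the source made its calls: active means gene knockdowns whose robust z-score for IL-1 alpha signal is at least 2 or at most -2, so actives lie on both sides; inactive means the rest.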 The list shows a part of the results.

Experiment: Components of the Cytosolic LPS Sensing Pathway: Gene Identification via Genome-wide siRNA Screen;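 further: robust z of the log signal after scaling to non-targeting control siRNA wells of the plate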
Settings: RAW264.7 macrophages, IL-1a HTRF, actives lie on both sides, screened at 100 nM (by protocol), cells primed 5 h with Pam3CSK4 first
How it was run: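 Supernatant IL-1a by HTRF from RAW264.7 cells primed with Pam3CSK4 (5 hours) and transfected with LipidA (24 hour) after 48h siRNA knockdown at 100 nM; cell viability checked with CellTiter-Glo.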

Row | Sequence | z-score
1 | GGUUAGACUCAGCUUCAUGTT against Tex19.2 | inactive: 1.54
2 | GGCACAUGCCCUUUUCUACTT against Cog1 | inactive: -1.24
3 | CCGGACUCUAGAGGACUUUTT against Lalba | inactive: 0.0285
4 | CAGAUGCAAGAAGAGAGAGTT against E130006D01Rik | inactive: -1.11
5 | GCAAUGACAUCUUUUAGACTT against Gpr12 | inactive: 0.123
6 | CCAUAAUCUCUUUUCACUGTT against Fzd7 | inactive: -0.375
7 | GGACUCAAGACACCAGUUGTT against Rufy3 | inactive: -0.318
8 | GGAAAGGAGAGGUGUGUUCTT against Asb7 | inactive: 0.431
9 | CGGAUUCCGCUGGAACUAUTT against Enpp7 | inactive: -0.194
10 | CCAAAUGGGAAGAGAUUGUTT against Xkr4 | inactive: -0.452
11 | CGCUUCUAUAAACCUGACUTT against Mrpl3 | inactive: 0.488
12 | GCUAUGACCGGAGGUUCUATT against Morn5 | inactive: 0.555
13 | GGAGUACGUUGACAUCAUCTT against Timp4 | inactive: 0.802
14 | GGAGCAUUCUUUGGUGAAGTT against 1700024B05Rik | inactive: -0.936
15 | GGAUAAUACAGAACAAAAGTT against Pstk | inactive: -0.498
16 | GCGUGAACCGUUUGAUGAGTT against 9030612E09Rik | inactive: 1.04
17 | GGUGAAGUACUUUUCGUUCTT against Slc1a3 | inactive: 1.21
18 | GGCUGUGACUCUGGAUUUGTT against Bdh1 | inactive: -0.985
19 | GGUCCUGGAGGCUUAUAAUTT against Sema3a | inactive: -0.151
20 | GGCUCCAAACAGAAUCUUGTT against Pmch | inactive: 0.768
21 | GCUACUCUCUAUUGGUUUUTT against Gpr45 | active: 2.45
22 | GCGGUGUCCUAAAAUGCACTT against Nkx1-2 | inactive: 0.0348

Pulled one by one from the list above, seven records:
Row | Sequence | z-score
18 | GGCUGUGACUCUGGAUUUGTT against Bdh1 | inactive: -0.985
7 | GGACUCAAGACACCAGUUGTT against Rufy3 | inactive: -0.318
15 | GGAUAAUACAGAACAAAAGTT against Pstk | inactive: -0.498
4 | CAGAUGCAAGAAGAGAGAGTT against E130006D01Rik | inactive: -1.11
22 | GCGGUGUCCUAAAAUGCACTT against Nkx1-2 | inactive: 0.0348
9 | CGGAUUCCGCUGGAACUAUTT against Enpp7 | inactive: -0.194
13 | GGAGUACGUUGACAUCAUCTT against Timp4 | inactive: 0.802

(next part)

Row | Sequence | z-score
23 | GGCCCAGCAAAAAAAGAAGTT against Usp46 | inactive: -0.397
24 | GGUUCUUAACCUCAGCAGUTT against Omg | inactive: -0.541
25 | GGUAGCAGUUGGACCUAAUTT against Setd7 | inactive: 0.157
26 | GGAAGUCUACAAGUGGCCATT against Nr1d1 | inactive: -0.467
27 | GGGUUAGCAACUUCAAAUATT against Zmynd19 | inactive: 0.996
28 | GGAGCAUUAUAUCAAUCCUTT against Zfp111 | active: 2.16
29 | GGAGUUGGACCUGUCAGAGTT against Daxx | inactive: -1.25
30 | GGCAGUAAAUAGUAAGAAATT against Ccr9 | inactive: -0.716
31 | GGAAAACUGCUUUGAGCUGTT against Thap7 | active: 2.72
32 | GGAACCAGAGAAAGAAGAUTT against Nfkbie | inactive: -0.566
33 | GGAUCACAGCAGAAGAAAUTT against Tmem144 | active: -2.95
34 | GGCUCUGGUCCAAGAAAUGTT against C4b | inactive: -0.176
35 | GGAAGCAUUUCUUAAUUCATT against Ncoa4 | inactive: 1.57
36 | GGAAGAGAAAUUCUUCCUCTT against Alg5 | inactive: 0.0359
37 | GCGGUUCACUAUCUCCCUATT against Khsrp | inactive: -0.0936
38 | GGAGAUCGACCACUUCUUCTT against Olfr1395 | inactive: -1.52
39 | CCGGAACUAUCAAUAAAUGTT against Mlst8 | inactive: -1.09
40 | GGCCGUGUGUUUCUGUAACTT against Matk | inactive: 0.626
41 | GCCUAUUCGAAUUUGGGAATT against Ogt | inactive: -0.0977
42 | GCAUUCAAAAUAGCUCUAUTT against Calb1 | inactive: 0.663
43 | GGUACAAAAGAAAACUGCUTT against Slbp | inactive: 0.00127
44 | GGCUAAUACAUAAAGUAGUTT against 4930515G01Rik | inactive: 0.452

Row | Sequence | z-score
45 | CGUGAACAGGUGGUUGGACTT against Hspa14 | inactive: 0.559
46 | GGUGGUGGUGGAAAAGAAGTT against Vars | inactive: -0.272
47 | GGGCCAAAUAUCAUAAACUTT against Strn4 | inactive: -0.0105
48 | GCCCGAGGUCAUCCUUUUATT against Cbx4 | inactive: -1.76
49 | GCCUAAACUACCCUUAUAGTT against Ocln | active: 3.4
50 | CCCAAAGCCCUUUUAAACUTT against Hmbs | inactive: 0.301
51 | GGAUGGAAUGCAGAAACGATT against Pcp2 | inactive: -0.061
52 | GGUCCAGAGUUAUGAUUUGTT against Mrm3 | inactive: -0.184
53 | CGAUACAUAUCCAUUGUAUTT against Skint9 | inactive: 0.61
54 | GCCCUGGCAUGCUAACAAATT against Prpf3 | inactive: -0.749
55 | GAGUGUCUUGAACACAGCCTT against Olfr635 | inactive: -0.0711
56 | CGUGGUGAACGAGAUUGAUTT against Kcnab1 | inactive: 1.21
57 | UAUGUCCUUGACAUUGGAGTT against Rnf225 | inactive: 0.211
58 | GGAGAGAAAAAGGACUCAGTT against Kcnd2 | inactive: -1.67
59 | GCAAAAAUUAUGCAGAGCATT against Olfr1443 | inactive: 0.401
60 | GGAUGGAGUGCCCUCAAGUTT against Pdk2 | inactive: -0.717
61 | GGAAUGAUCAUUCUAAUCCTT against Olfr1497 | inactive: 1.19
62 | GGAACGUGUUCAAAAGAGUTT against Sos1 | active: 2.22
63 | GGCGGAGUUUUUAAUACUCTT against Upb1 | inactive: 1.79
64 | GCUUUGUUUAUUUAGCCAGTT against Olfr154 | inactive: -0.877
65 | GCUCCUAGAUUGCACCUACTT against Sez6l2 | inactive: 1.17
66 | CGGAUCUGAGAUAAAGACGTT against Arsj | inactive: 1

Row | Sequence | z-score
67 | GGUGACUUUGAAAAAGCCATT against Hscb | inactive: -0.0876
68 | GGGAGAGAUGUGGAAAUCUTT against Rac2 | inactive: 0.0158
69 | GCAUGUUUAGAACUCGCUCTT against Zfp87 | inactive: -0.779
70 | CCUAACCUGAAAGUUCCAGTT against Atxn7l1 | inactive: 1.52
71 | CGAGUGAGUGACGGCUACATT against Sema3e | inactive: -0.63
72 | GGAAUCCUUUAUUCUUGUATT against Zfp687 | inactive: 0.585
73 | CGAAGAGAUCAGUAAUAUGTT against Kif21a | inactive: 0.31
74 | GGUUUGUAAAGGUUAUGACTT against Nell2 | inactive: 0.0203
75 | GCUUUUACAAGACCUGUUCTT against Pde2a | inactive: -0.633
76 | GCAGCUCUGCGGAAGCUUUTT against Olfr1350 | inactive: -0.505
77 | GGACCCAAGAAGAUGACGUTT against 0610010K14Rik | inactive: -0.694
78 | GCAAGUGGUAAUGGUGACCTT against Tex15 | inactive: -0.328
79 | GGGAGUGUUUGAAUCUUUUTT against Ndc1 | inactive: -1.55
80 | GGGAUUGUAACAGCAUCCCTT against Epha6 | inactive: 0.594
81 | GCAAGGUGAUUUGUGUUCGTT against Lrrc4c | inactive: -0.291
82 | GGUAAUAGGAGAUACUGUGTT against Gzme | inactive: 0.624
83 | GCUCUAGGCAGAGCUAAGATT against Gsx1 | inactive: 1.68
84 | GGUCCACUUGCCAUCUAUUTT against Zfp54 | inactive: -1.09
85 | GGAAGUUGUAGUUUCGUGGTT against Tmem229a | inactive: -0.432
86 | GGAACUUCGUCAGUACAUUTT against Setdb1 | active: 5.77
87 | GGCUAAUGUGCUCUCUCAUTT against Olfr644 | inactive: 0.958
88 | CCCGGAUGAGGAAUUCAUGTT against Pdlim7 | inactive: 1.01

Row | Sequence | z-score
89 | GGACAAAAGGCAAUCUACATT against Mettl18 | active: 2.8
90 | GGAGAUUGGGAUCAAAGCCTT against Mthfd1 | inactive: -1.56
91 | GGCUUUGGCGAUAAGACAUTT against Glud1 | active: 2.29
92 | GGUUUGAGUUUAGAGUUCATT against Axl | inactive: -1.68
93 | GGGCAAAAAUCCUCUAAAUTT against Gas7 | inactive: 0.157
94 | GGCUCUAAAGCAAUGGAUUTT against Chil5 | inactive: 1.28
95 | GGAAGUGCAAGAAAGAUAUTT against Ltbp3 | inactive: -1.07
96 | GGACAAACUGCCCUUACAGTT against BC048671 | inactive: -0.0643
97 | GGACUUUUGGAUAACUUAGTT against Lrrcc1 | inactive: 0.943
98 | GGACAAUGUUUCCUCACUCTT against Xcl1 | inactive: -1.21
99 | CCAGACUAUUGACUUUCUGTT against Tspan15 | inactive: 0.198
100 | GGUUUAUUGUAAUGGCUAATT against Olfr1271 | inactive: 0.452
101 | GCUAUGGAUCAAAGAAUUATT against Senp1 | inactive: 0.204
102 | CCUGUGAAUCACCCAAUCATT against Unc80 | inactive: 0.0313
103 | CGUGACCACAACUCAAGAATT against Lacc1 | inactive: -1.09
104 | AAUCAGUUUGAAAUGGUAGTT against Olfr255 | inactive: -0.543
105 | GGAAGUUAUUGGAGCUUUGTT against Olfr706 | inactive: 1.92
106 | CGCGCUGUGACUUUCAAAATT against Ifitm1 | inactive: 0.574
107 | GGCUGUGACUAUGUUGUGCTT against Top3b | active: -2.15
